{"source": "patent US5308625A", "about": "“Enhancement of transdermal drug delivery using monoalkyl phosphates and other absorption promoters” (priority 1992, dated 1994)", "origin": "cited, not measured here", "conditions": "oral dose of 2 mg; cited from earlier work", "note": "At least one read-out could not be matched to a standard name with certainty.", "data": [{"smiles": "CCOC(=O)[N-]c1cn(N2CCOCC2)n[o+]1", "note": "[Molsidomine, N-5-ethoxycarbonyl-3-morpholinosydnonimine]", "values": [{"measurement": "peak plasma concentration", "value": 15, "unit": "mg/mL"}]}]}
